Data as given in PubChem BioAssay AID743121 (NCATS, 2013).
Shown is an unselected part of about 26,000 deposited reagents. In the full data, 167 (0.63%) were called active. 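Calls are per gene from RSA p-values that are not deposited; an individual active-marked siRNA can sensitise only weakly.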 Unmarked entries are inactive. The numbers tell different reagents against one gene apart. Not all columns of the deposit are shown.

Assay: 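Partners whose loss is lethal together with topoisomerase I blockade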 (primary screen)
Cells: MDA-MB-231 cells, a human breast cancer line
Reagent: single siRNA against human genes, 20 nM siRNA (0.8 pmol per well)
Time to read-out: 120 h (drug added 48 h after transfection, read 72 h later)
Treatment: camptothecin 20 nM (about EC30) for 72 h; vehicle 0.1% DMSO in parallel plates
Measurement: 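Cell viability by ATP luminescence (CellTiter-Glo) as % of non-targeting siRNA wells, and the log2 ratio of viability without drug over viability with camptothecin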
Scale: log2 vehicle/camptothecin viability: higher = stronger sensitisation to camptothecin; viability with camptothecin: higher = more viable cells
Units: viability with camptothecin in % of control
Call rule: 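Each gene scored by redundant siRNA activity (RSA) over its individual siRNA ratios; a gene is called active at p < 0.001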

PPEF1 #1 gave log2 vehicle/camptothecin viability 0.47; viability with camptothecin 28.6.
Silencing of PPEF1 #2 came out at: log2 vehicle/camptothecin viability 1; viability with camptothecin 35.8.
With knock-down of PPEF1 #3 the results were log2 vehicle/camptothecin viability -0.258; viability with camptothecin 114.
Depletion of PPEF1 #4 resulted in: log2 vehicle/camptothecin viability -0.25; viability with camptothecin 104.
With knock-down of AKR1E2 #1, the screen gave log2 vehicle/camptothecin viability -0.122; viability with camptothecin 109.
AKR1E2 #2 showed log2 vehicle/camptothecin viability -0.14; viability with camptothecin 64.9.
AKR1E2 #3 showed log2 vehicle/camptothecin viability -0.235; viability with camptothecin 71.7.
Against AKR1E2 #4 the deposit lists log2 vehicle/camptothecin viability 0.139; viability with camptothecin 29.1.
GNG10 #1 gave log2 vehicle/camptothecin viability -0.28; viability with camptothecin 86.6.
With knock-down of GNG10 #2, the record shows log2 vehicle/camptothecin viability -0.527; viability with camptothecin 44.4.
GNG10 #3 showed log2 vehicle/camptothecin viability -0.224; viability with camptothecin 89.2.
GNG10 #4 gave log2 vehicle/camptothecin viability -0.0117; viability with camptothecin 93.8.
With knock-down of FUCA2 #1 the results were log2 vehicle/camptothecin viability -0.155; viability with camptothecin 82.5.
For FUCA2 #2, the entry reads log2 vehicle/camptothecin viability -0.211; viability with camptothecin 35.7.
For FUCA2 #3, the entry reads log2 vehicle/camptothecin viability -0.103; viability with camptothecin 122.
FUCA2 #4 gave log2 vehicle/camptothecin viability 0.248; viability with camptothecin 33.9.

Entries listed so far whose target name begins with G or g:
GNG10 #1 — log2 vehicle/camptothecin viability = -0.28; viability with camptothecin = 86.6
GNG10 #2 — log2 vehicle/camptothecin viability = -0.527; viability with camptothecin = 44.4
GNG10 #3 — log2 vehicle/camptothecin viability = -0.224; viability with camptothecin = 89.2
GNG10 #4 — log2 vehicle/camptothecin viability = -0.0117; viability with camptothecin = 93.8

The list goes on:
After knock-down of TWIST2 #1, the record shows log2 vehicle/camptothecin viability -0.105; viability with camptothecin 98.
TWIST2 #2 gave log2 vehicle/camptothecin viability 0.372; viability with camptothecin 73.8.
After knock-down of TWIST2 #3 the results were log2 vehicle/camptothecin viability -0.702; viability with camptothecin 1.13.
Knock-down of TWIST2 #4 came out at: log2 vehicle/camptothecin viability -0.473; viability with camptothecin 98.9.
GDF9 #1 gave log2 vehicle/camptothecin viability -0.153; viability with camptothecin 128.
GDF9 #2 gave log2 vehicle/camptothecin viability -0.247; viability with camptothecin 112.
GDF9 #3 gave log2 vehicle/camptothecin viability -0.311; viability with camptothecin 74.5.
After knock-down of GDF9 #4 the results were log2 vehicle/camptothecin viability 0.277; viability with camptothecin 54.4.
